Test results from paper PMC10743763.

How the values were obtained:
Experiment in all cases: pull-down; GST-tagged OFD1 fragments on glutathione beads incubated overnight at 4 °C with extracts of 293T cells transfected with PXN constructs (mCherry fusions); four washes; Western blot; only the target purified
[1] = molecular target: T1, GST-OFD1 amino acid residues 365-1012 (human) (UniProt O75665)
T1 sequence: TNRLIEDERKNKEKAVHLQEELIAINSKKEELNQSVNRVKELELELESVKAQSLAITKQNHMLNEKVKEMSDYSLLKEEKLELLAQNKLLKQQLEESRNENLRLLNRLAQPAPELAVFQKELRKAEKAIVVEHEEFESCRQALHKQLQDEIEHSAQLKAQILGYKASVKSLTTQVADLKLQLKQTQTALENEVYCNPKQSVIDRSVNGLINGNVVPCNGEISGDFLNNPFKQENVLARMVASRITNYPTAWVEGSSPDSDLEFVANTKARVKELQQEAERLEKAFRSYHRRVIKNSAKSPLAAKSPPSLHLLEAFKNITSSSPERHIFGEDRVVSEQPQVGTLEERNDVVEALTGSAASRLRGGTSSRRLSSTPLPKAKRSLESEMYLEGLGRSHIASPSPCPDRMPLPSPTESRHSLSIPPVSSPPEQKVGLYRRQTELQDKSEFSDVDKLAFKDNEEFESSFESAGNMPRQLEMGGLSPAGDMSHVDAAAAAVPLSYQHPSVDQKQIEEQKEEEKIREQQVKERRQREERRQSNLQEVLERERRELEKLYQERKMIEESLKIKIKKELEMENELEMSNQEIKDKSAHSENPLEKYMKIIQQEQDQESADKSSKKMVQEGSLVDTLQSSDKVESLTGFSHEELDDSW

[2] = molecular target: T2, GST-OFD1 amino acid residues 601-1012 (human) (UniProt O75665)
T2 sequence: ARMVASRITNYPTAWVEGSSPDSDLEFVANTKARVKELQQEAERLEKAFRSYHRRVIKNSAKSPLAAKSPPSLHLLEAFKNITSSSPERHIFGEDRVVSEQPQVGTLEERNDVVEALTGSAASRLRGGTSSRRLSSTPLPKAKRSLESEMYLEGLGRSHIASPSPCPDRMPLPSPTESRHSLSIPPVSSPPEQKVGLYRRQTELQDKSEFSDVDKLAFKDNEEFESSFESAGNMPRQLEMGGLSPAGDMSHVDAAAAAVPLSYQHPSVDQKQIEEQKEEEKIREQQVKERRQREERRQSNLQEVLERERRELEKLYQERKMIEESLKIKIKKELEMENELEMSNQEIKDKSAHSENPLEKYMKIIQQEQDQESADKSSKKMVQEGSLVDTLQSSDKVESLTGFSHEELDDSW

[3] = molecular target: T3, GST-OFD1 3-601 construct (human) (UniProt O75665)
T3 sequence: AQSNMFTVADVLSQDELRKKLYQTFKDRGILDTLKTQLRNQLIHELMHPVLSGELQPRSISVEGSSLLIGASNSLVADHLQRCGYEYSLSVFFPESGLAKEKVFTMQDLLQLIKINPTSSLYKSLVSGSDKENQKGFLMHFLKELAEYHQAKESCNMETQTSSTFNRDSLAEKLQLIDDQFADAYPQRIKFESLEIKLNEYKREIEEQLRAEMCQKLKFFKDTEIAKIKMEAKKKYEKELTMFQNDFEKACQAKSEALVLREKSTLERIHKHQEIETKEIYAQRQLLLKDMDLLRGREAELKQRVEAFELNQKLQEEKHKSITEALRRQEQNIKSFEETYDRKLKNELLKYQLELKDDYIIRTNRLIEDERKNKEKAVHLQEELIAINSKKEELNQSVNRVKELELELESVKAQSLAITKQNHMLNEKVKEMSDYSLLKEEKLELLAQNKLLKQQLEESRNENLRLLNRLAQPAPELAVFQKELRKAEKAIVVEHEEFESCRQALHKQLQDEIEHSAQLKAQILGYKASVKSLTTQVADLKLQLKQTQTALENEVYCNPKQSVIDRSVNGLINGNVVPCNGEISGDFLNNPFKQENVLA

[4] = molecular target: T4, GST-OFD1 amino acid residues 145-1012 (human) (UniProt O75665)
T4 sequence: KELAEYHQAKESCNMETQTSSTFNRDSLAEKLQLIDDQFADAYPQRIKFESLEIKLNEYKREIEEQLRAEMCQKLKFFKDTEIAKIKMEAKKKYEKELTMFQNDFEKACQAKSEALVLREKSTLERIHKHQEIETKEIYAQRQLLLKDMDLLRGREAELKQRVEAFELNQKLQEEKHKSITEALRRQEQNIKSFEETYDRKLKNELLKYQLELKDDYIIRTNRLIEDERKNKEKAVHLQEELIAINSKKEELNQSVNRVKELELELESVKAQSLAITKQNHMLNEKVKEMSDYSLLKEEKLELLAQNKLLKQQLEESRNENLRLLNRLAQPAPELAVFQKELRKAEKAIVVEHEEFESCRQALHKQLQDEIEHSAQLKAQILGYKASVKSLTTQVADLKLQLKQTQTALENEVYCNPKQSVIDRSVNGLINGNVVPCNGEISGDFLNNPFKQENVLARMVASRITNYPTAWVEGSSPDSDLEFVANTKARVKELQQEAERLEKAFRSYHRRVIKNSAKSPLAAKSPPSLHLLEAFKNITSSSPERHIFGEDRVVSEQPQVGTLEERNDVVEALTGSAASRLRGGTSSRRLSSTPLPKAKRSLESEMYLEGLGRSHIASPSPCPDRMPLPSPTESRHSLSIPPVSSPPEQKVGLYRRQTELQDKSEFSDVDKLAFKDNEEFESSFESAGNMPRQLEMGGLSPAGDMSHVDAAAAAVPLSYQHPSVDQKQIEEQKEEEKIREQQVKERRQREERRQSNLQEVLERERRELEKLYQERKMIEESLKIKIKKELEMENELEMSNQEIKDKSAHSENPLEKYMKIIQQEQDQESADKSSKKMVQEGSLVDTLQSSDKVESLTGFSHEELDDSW

[5] = molecular target: T5, GST-OFD1 amino acid residues 765-1012 (human) (UniProt O75665)
T5 sequence: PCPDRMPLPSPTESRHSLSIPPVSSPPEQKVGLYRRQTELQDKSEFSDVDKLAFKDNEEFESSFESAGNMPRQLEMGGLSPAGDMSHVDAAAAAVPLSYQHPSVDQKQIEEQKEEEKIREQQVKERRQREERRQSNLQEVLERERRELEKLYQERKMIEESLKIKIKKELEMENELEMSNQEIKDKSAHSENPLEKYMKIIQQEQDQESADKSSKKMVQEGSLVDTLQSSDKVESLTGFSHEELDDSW

Row | Substance | binding [1] | binding [2] | binding [3] | binding [4] | binding [5]
1 | N-terminal domain (NTD) of paxillin containing the LD domains, fused with mCherry (domain or fragment) | binds | binds | no binding | binds | binds
2 | C-terminal domain (CTD) of paxillin containing the LIM domains, fused with mCherry (domain or fragment) | no binding | no binding | – | no binding | no binding

Results are given in words; binding and its absence hold for the method and conditions named. Binding seen in cells or lysates may run through a third protein. For part of these data: A result given as binding can be weak or reduced; the word gives no strength. Sequences can lack the tags named with a protein.
